# No constants are given. Whether binding was seen depends on the method and setting. Binding seen in cells or lysates may run through a third protein. Some results given as binding are weak or reduced against the parent protein; the word gives no strength.
# By UniProt entry, the sequences of proteins in these tests, tags left out.
# UniProt P04107: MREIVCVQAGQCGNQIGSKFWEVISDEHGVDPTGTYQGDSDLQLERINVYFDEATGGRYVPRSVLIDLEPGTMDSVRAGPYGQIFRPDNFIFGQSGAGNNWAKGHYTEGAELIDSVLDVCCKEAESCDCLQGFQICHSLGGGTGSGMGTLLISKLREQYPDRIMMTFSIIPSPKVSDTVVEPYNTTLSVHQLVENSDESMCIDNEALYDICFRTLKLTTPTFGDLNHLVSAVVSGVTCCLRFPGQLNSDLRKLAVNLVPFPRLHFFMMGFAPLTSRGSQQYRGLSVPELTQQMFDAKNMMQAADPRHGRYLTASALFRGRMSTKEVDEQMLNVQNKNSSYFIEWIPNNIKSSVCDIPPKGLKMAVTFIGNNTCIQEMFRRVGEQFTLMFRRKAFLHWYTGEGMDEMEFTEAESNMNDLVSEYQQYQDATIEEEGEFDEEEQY
# Target: GST-fused β-tubulin (T. brucei) (UniProt P04107)
# Experiment: pull-down; GST-β-tubulin on Glutathione Sepharose 4B beads incubated with cleared trypanosome cell lysate containing CRK2-3HA for 1 h at 4°C; lysis/wash buffer 25 mM Tris-HCl pH 7.6, 150 mM NaCl, 1 mM DTT, 1% Nonidet P-40; six washes; anti-HA immunoblot; only the target purified
binder,measurement,value
"CRK2-3HA (enzyme, UniProt P54665 1-345) MQVQVQEGQTACDGSLRPLPSAGPASFVPRSLRPAPLRGTSTPDRYSRIEKVGEGSYGIVYKCHDNFTGRTVAMKRIPLIVNDGGVPSTAVREVSLLRELNHPYVVRLLDVVLHEAKLLLIFEYMEQDLQGMLKQRNTAFVGGKLRRIMFQLLLGLHECHSRRFVHRDIKPSNILIDRKESVVKLADFGLGRAFRVPLQTYTTEVMTLWYRAPEVLLGDKQYLPAVDVWSMGCVFAELARRRSLFAGDTAINQLFSIFQLLGTPTEATWRGVTSLPHHNVNFPRWTAKPLRTAVPALDDDGVDLLRRMLCYNPRERITAYEALQHSYFDEVREEEVEKLMRFNGA",binding,binds

# — article PMC10069784
